Patent US9198909B1, “Materials and methods for inhibiting mamalian S-nitrosoglutathione reductase” (Indiana University Research and Technology Corporation, priority 2007, dated 2015)
Some of these results come from one statement about several compounds together. For at least one compound, name, drawing or mass did not settle the structure.

Amino acid sequences for entries named in this document (tags omitted). A change or cut given only in a name is not applied to a line headed by its entry. Residues count along the entry.
UniProt P11766, 2-374 limits assumed: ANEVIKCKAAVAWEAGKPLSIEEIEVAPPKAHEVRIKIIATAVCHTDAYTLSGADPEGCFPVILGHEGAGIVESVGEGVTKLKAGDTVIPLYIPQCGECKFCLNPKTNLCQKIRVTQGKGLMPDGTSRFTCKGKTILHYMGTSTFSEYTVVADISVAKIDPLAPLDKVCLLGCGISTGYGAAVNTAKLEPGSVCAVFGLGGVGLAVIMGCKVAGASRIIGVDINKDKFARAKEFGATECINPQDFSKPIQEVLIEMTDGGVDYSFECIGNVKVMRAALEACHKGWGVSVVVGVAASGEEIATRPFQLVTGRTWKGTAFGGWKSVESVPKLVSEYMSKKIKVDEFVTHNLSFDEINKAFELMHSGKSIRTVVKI
UniProt P00325, 2-375: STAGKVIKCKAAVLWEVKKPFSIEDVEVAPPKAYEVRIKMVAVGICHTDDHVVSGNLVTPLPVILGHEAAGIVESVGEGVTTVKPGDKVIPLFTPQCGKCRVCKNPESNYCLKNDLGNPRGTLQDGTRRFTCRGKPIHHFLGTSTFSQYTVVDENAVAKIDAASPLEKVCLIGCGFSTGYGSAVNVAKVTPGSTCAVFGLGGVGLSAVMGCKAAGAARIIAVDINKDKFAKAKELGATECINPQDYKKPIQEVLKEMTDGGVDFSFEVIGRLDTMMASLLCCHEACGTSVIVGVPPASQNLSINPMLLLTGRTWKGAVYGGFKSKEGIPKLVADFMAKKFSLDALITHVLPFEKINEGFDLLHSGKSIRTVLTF
UniProt P08319: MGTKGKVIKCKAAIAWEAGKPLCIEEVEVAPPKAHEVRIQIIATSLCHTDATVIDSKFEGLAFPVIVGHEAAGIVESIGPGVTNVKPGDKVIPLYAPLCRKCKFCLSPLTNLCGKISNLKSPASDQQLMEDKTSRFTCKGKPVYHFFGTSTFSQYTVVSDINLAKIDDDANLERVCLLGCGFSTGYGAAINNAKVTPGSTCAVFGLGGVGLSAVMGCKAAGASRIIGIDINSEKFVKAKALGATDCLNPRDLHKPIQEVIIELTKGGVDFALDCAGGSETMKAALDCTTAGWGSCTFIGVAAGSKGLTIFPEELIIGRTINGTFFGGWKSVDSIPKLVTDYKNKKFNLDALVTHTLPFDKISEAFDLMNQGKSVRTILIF
UniProt P40394: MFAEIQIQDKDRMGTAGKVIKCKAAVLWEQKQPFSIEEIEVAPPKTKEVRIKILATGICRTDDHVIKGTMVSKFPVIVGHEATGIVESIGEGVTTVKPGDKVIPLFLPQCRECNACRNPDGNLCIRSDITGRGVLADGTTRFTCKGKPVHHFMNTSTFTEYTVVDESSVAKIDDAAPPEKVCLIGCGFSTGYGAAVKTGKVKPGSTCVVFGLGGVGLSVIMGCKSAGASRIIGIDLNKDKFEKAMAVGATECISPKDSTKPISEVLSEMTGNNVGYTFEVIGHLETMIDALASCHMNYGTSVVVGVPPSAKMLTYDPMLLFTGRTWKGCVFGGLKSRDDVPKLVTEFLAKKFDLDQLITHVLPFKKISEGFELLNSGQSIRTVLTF

Legend:
[1] = molecular target: T1, GSNOR (Homo sapiens, UniProt P11766); experiment: GSNOR inhibition at pH 7.5 (GSNO, NADH); format: biochemical; parameters: made in house; host or cells: E. coli; settings: for IC50 compared with dodecanoic acid: physiological pH; for inhibition of GSNOR at pH 7.5: pH 7.5, 15 μM NADH, 10 μM GSNO, 50 μM inhibitor
Description: (§1) Referring now to Table 1, inhibition was studied at pH 10. These assays were performed in 0.1 M sodium glycine containing 1 mM octanol, 1 mM NAD^+, 0.1 mM EDTA and 50 μM inhibitor. Inhibition studies at pH 7.5 were performed in 50 mM potassium phosphate pH 7.5 that included 15 μM NADH, 10 μM GSNO, 0.1 mM EDTA and 50 μM inhibitor. The data file to a model consisted with partial inhibition and a hill coefficient of 2.4 in the inhibition curve. The screening for GSNOR inhibitors was performed using a library of 60,000 compounds from ChemDiv Inc in the Chemical Genomics Core facility at Indiana University. Screening was conducted in 384 well plates and involved incubating GSNOR with 12.5 μM compound, 1 mM each of NAD^+ and octanol in 0.1 M sodium glycine pH 10. Enzyme activity was determined by measuring the rate of production of NADH spectrophotometrically at 340 nm. Inhibition of GSNOR was calculated from the ratio of enzyme activity in the presence of compounds to that in no compound controls performed on the same assay plate. Following their identification from the high-throughput screening, the GSNOR inhibitory properties of the initial hits were confirmed at the pH 10 using 12-hydroxydodecanoic acid as the substrate and at pH 7.5 using GSNO as the substrate (see the brief description of Table 1 for details on how the assay was carried out.)

[2] = molecular target: T1, GSNOR; experiment: Dead-end inhibition studies of GSNOR; format: biochemical; parameters: made in house; host or cells: E. coli; settings: pH 7.5, 25° C., NADH held at 15 μM
Description: (§2) Referring now to Table 3, inhibition experiments were performed at 25° C. in 50 mM potassium phosphate (pH 7.5) including 0.1 mM EDTA. A minimum of five concentrations of the varied substrate and three inhibitor concentrations were used for each experiment. NADH and GSNO concentrations were held at 15 or 10 μM, respectively when present as a constant substrate in the assay. The Kis and Kii values are respectively the slope and intercept inhibition constants and are listed along with their associated standard errors. All data were fit to a competitive (C), noncompetitive (NC), or uncompetitive (UC) inhibition models. The type of inhibition shown in the table represents the best fit of the data to the given model as judged from F statistics analysis. […] The dissociation constant was measured at 25° C. in 50 mM potassium phosphate pH 7.5. Each KD value is an average of three independent experiments and is shown with the associated standard error.
Inhibition experiments with the GSNOR inhibitors were conducted at 25° C. in 3 ml of 50 mM potassium phosphate (pH 7.5) containing 0.1 mM EDTA. Five different concentrations of GSNO or NADH were used when they were the varied substrates and maintained at 10 and 15 μM, respectively, when present as the nonvaried substrate. A minimum of three inhibitor concentrations were used in these assays and the rate of NADH and GSNO consumption was determined spectrophotometrically by following change in absorbance at 340 nm. The data were fit to the competitive, noncompetitive and uncompetitive inhibition models and the model that the data was chosen on the basis of F-statistics performed using the Graphpad Prizm 4.0 program.

[3] = molecular target: T2, β2β2-ADH (Homo sapiens, UniProt P00325); experiment: ADH isozyme selectivity study: β2β2-ADH; format: biochemical; settings: about 5 μM inhibitor, pH 7.5, 2 mM NAD+, 1 mM ethanol
T2 construct: made in house; host or cells: E. coli

[4] = tested on: RAW 264.7 cells; experiment: Nitroso species accumulation in RAW 264.7 cells (triiodide chemiluminescence); format: cell-based, rat; settings: 500 μM GSNO + 33 μM compound, 6 hours
Description: Referring now to FIG. 3, briefly, RAW 264.7 cells were incubated with 500 μM GSNO alone (γ) or in presence of 33 μM Compound 6 (◯) or 7 (Δ) or 8 (▪). At indicated times or at 4 hr (in case of B), the cells were lysed and the lysate was analyzed for protein and nitroso species concentration by Bradford and chemiluminescence assay, respectively. For details, see Materials and methods. Data represents mean±SE (n=3−12).
RAW 264.7 cells were cultured in DMEM medium supplemented with 10% FBS, 200 U/ml of penicillin and 200 μg/mL of streptomycin. The cells were incubated at 37° C. in an atmosphere containing 5% CO2 and 95% air. For the experiments, 1-2×10^6 cells were plated in six-well plates a day before the experiment. […] Cell debris was pelleted by centrifugation (10 min at 16,000 g) and the cell lysate was analyzed for protein concentration using the Bio-Rad dye-binding protein assay. The concentration of nitroso compounds in the cell lysate was determined using the triiodide based chemiluminescence method using a Sievers 280 nitric oxide analyzer. […] The amount of s-nitrosothiols in the cell lysate was determined by treating initially passing the cell lysate through a microspin column and treating the eluate with 5 mM HgCl2 before determining the nitroso compound concentration using chemiluminescence. […]

[5] = molecular target: T3, π-ADH (Homo sapiens, UniProt P08319); experiment: ADH isozyme selectivity study: π-ADH; format: biochemical; settings: about 5 μM inhibitor, pH 7.5, 1 mM NAD+, 35 mM ethanol
T3 construct: made in house; host or cells: E. coli
Description: (§3) Referring now to Table 2, briefly inhibition studies were performed in presence or absence of about 5 μM inhibitor. These studies were carried out at 25° C. in 50 mM potassium phosphate pH 7.5 including 0.1 mM EDTA. The enzymes activities were measured by following the changes in absorbance at 340 nm. The values show the percent reduction in the enzyme activity (from a minimum of two measurements) caused by the inhibitor. […] Studies with β2β2-, σσ-, π-ADH and involving compounds 5-8 were performed in 0.05% DMSO. Studies with GSNOR were performed in presence of 1% DMSO, except when compound 4 was the inhibitor. Studies with compound 4 were performed in 0.36% DMSO. DMSO at 0.36% inhibited β2β2-, σσ-, and π-ADH by 24, 18, and 9%, respectively. Studies with β2β2-ADH involved adding 3.5 μg of the enzyme to the assay mixture including 2 mM NAD^+, 1 mM ethanol and the inhibitor.
(§4) Studies with σσ-ADH involved adding 0.5 μg of enzyme to the assay mixture containing 2 mM NAD^+, 30 mM ethanol and the inhibitor. Studies with π-ADH involved adding 19.5 μg of the enzyme to the assay mixture including 1 mM NAD^+, 35 mM ethanol and the inhibitor. […]
(§5) Inhibition of the β2β2-, π-, and σ-ADH was evaluated by determining the inhibitory effect of GSNOR inhibitors on the rate of oxidation of ethanol by each of these ADH isozymes. […]

[6] = molecular target: T4, σ-ADH (Homo sapiens, UniProt P40394); experiment: ADH isozyme selectivity study: σ-ADH; format: biochemical; settings: about 5 μM inhibitor, pH 7.5, 2 mM NAD+, 30 mM ethanol
T4 construct: made in house; host or cells: E. coli
Description: as §3, §4, §5

[7] = molecular target: T1, GSNOR; experiment: ADH isozyme selectivity study: GSNOR; format: biochemical; parameters: made in house; host or cells: E. coli; settings: about 5 μM inhibitor, pH 7.5, 15 μM NADH, 5 μM GSNO
Description: as §3
Studies with σσ-ADH involved adding 0.5 μg of enzyme to the assay mixture containing 2 mM NAD^+, 30 mM ethanol and the inhibitor. Studies with π-ADH involved adding 19.5 μg of the enzyme to the assay mixture including 1 mM NAD^+, 35 mM ethanol and the inhibitor. Studies with GSNOR involved adding 0.1 μg of the enzyme to an assay mixture including 15 μM NADH, 5 μM GSNO and the inhibitor.

[8] = molecular target: T1, GSNOR; experiment: GSNOR inhibition at pH 10 (octanol, NAD+); format: biochemical; parameters: made in house; host or cells: E. coli; settings: pH 10, 0.1 M sodium glycine, 1 mM octanol, 1 mM NAD+, 50 μM inhibitor
Description: as §1

[9] = molecular target: T5, GSNOR•NADH complex (Homo sapiens, UniProt P11766); experiment: Fluorescence equilibrium binding to GSNOR•NADH complex; settings: for equilibrium dissociation constant, fold lower than compound 7: GSNOR•NADH complex, pH 7.5; for Kd: pH 7.5, 2 μM GSNOR, 1.7 μM NADH, read-out: equilibrium dissociation constant for the GSNOR•NADH complex
T5 construct: made in house; host or cells: E. coli
Description: Referring now to FIG. 2, (A) Changes in the fluorescence of NADH (curve a) upon sequential addition of GSNOR (curve b) and compound 8 (curve c). To a solution of 1.7 μM NADH were added 2 μM GSNOR and 50 μM compound 8 in sequence and the fluorescence of the solution measured each time (λexc=350 nm; λemm=375-550 nm); (B) Changes in the fluorescence of NADH (curve a) upon sequential addition of GSNOR (curve b), 12-HDDA (curve c) and compound 8 (curve d). To a solution of 1.7 μM NADH were added 2 μM GSNOR, 810 μM 12-HDDA and 50 μM compound 8 in sequence and the fluorescence measured each time (λexc=350 nm; λemm=375-550 nm); (C) Binding of compound 8 to GSNOR•NADH complex. The change in fluorescence of a 1.7 μM NADH and 2 μM GSNOR mixture (λexc=350 nm; λemm=455 nm) with increasing concentrations of compound 8 was fitted to a single site binding model (equation 1; see materials and methods) using the Graphpad Prizm 4. All of the fluorescence studies were conducted at room temperature in 50 mM potassium phosphate pH 7.5.
as §2
Fluorescence studies were conducted in 50 mM potassium phosphate pH 7.5, at room temperature using a Fluoromax-2 fluorescence spectrometer (Instruments S.A., Inc., Edison, N.J.). The equilibrium dissociation constant of GSNOR inhibitors was determined by measuring the changes in the fluorescence of GSNOR bound NADH (λexc=350 nm; λemm=455 nm) upon the addition of inhibitor. […] The decrease in fluorescence at 455 nm with each addition of inhibitor was plotted against the final concentration of inhibitor and the data were fitted to equation 1 using nonlinear regression to obtain the dissociation constant of the inhibitor for GSNOR-NADH complex,
[formula] In equation 1, ΔF is the change in the fluorescence at 455 nm upon the addition of inhibitor. ΔFM is the maximum fluorescence change that was obtained from curve fitting. […]

`CC(=O)Oc1ccc(C2Nc3ccc(C(=O)O)cc3C3C=CCC32)c(OC(C)=O)c1` (stereo not shown) [Compound 5] was tested, and the “IC50 compared with dodecanoic acid” value [1] was “hundred fold lower”.
`N#Cc1ccccc1CSc1nc2ccsc2c(=O)n1Cc1ccc(C(=O)O)cc1` [Compound 8] was tested, and the “type of inhibition against varied GSNO” value [2] was “noncompetitive”, the “inhibition of β2β2-ADH” value [3] was “no significant inhibition” and the “levels of nitrosylated species, fold higher than GSNO alone” value [4] was 3 to 4 fold. The “inhibition of π-ADH” value [5] was “no significant inhibition”, the “inhibition of σ-ADH” value [6] was “no significant inhibition” and the “inhibition of GSNOR activity” value [7] was “more than 70%”. The “inhibition of GSNOR at pH 7.5” value [1] was 1.7-35%, the “IC50 compared with dodecanoic acid” value [1] was “hundred fold lower” and the “inhibition of GSNOR at pH 10” value [8] was 53-97%. For the same molecule, the “equilibrium dissociation constant, fold lower than compound 7” value [9] was 3-5 fold and the Kd [9] was < 10 µM.
With `CC(=O)c1ccc(-n2c(CCC(=O)O)ccc2-c2ccccc2)cc1` [Compound 6] the “type of inhibition against varied GSNO” value [2] was “noncompetitive”, the “inhibition of β2β2-ADH” value [3] was “no significant inhibition” and the “levels of nitrosylated species, fold higher than GSNO alone” value [4] was 3 to 4 fold. For the same molecule, the “inhibition of π-ADH” value [5] was “no significant inhibition”, the “inhibition of σ-ADH” value [6] was “no significant inhibition” and the “inhibition of GSNOR activity” value [7] was “more than 70%”. For the same molecule, the “inhibition of GSNOR at pH 7.5” value [1] was 1.7-35%, the “IC50 compared with dodecanoic acid” value [1] was “hundred fold lower” and the “inhibition of GSNOR at pH 10” value [8] was 53-97%. For the same molecule, the “equilibrium dissociation constant, fold lower than compound 7” value [9] was 3-5 fold and the Kd [9] was < 10 µM.
With `CCCCCCCCCCCC(=O)O` [dodecanoic acid, reference compound] the “type of inhibition against varied GSNO” value [2] was “noncompetitive”.
With `Cc1ccc(C)c(-c2csc(-c3cc4ccc(O)cc4oc3=O)n2)c1` [Compound 4] the “IC50 compared with dodecanoic acid” value [1] was “hundred fold lower”.
